Laboratory results: PubChem BioAssay AID1347423 (Functional Genomics Laboratory (NCATS/FGL), 2020)
About 210 (0.4%) of roughly 52,000 sequences were called active.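 The calls were made as follows: active = gene whose silencing raises cell survival under the drug, median off-target-corrected z-score across its silencing RNAs 2 or more; inactive = the rest.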 The list shows a part of the results.

Experiment: Resistance to Poly (ADP-Ribose) Polymerase inhibitor: Gene Identification via Genome-wide siRNA Screen
Settings: mouse BRCA2 R2336H ES cells, olaparib, CellTiter-Glo viability; stronger effect = higher value
Outline: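 Mouse BRCA2 R2336H ES cells were reverse-transfected with siRNA (20 nM final), treated at 48 h with 500 nM olaparib, and read by CellTiter-Glo after 72 h. Scores: MAD-based z per siRNA, median per gene, seed off-target correction.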

| Sequence | z-score |
| --- | --- |
| GGAACCAGUUUAAAUGAUUTT against Axot | inactive: -0.0255 |
| GCACAAGUUCAGAAAUGAATT against 1700011J10Rik | inactive: 0.797 |
| GCACUUUUUUGCUGCUGAUTT against Olfr1263 | inactive: 0.985 |
| GGUCUAGAGUUACCAUUCATT against Aqp9 | inactive: -2.28 |
| GCCUACGUUACCUUGAUCCTT against AW210596 | inactive: -0.756 |
| GGUAACAUACUAAAAGAAGTT against V2r16 | inactive: -1.42 |
| CGGGCUGGGAAGUUGUUAGTT against Bcl10 | inactive: 0.984 |
| CCGUGACCUAUAACGAAGATT against 1110008B24Rik | inactive: 0.678 |
| GCAUAGGCCUUAGUUCUGCTT against D17Ertd441e | inactive: -2.74 |
| CCUAGUUGAAAAUUGGGAATT against 0610025O11Rik | inactive: -0.794 |
| GACUUCAAACAAAUGGUGCTT against Sprrl9 | inactive: 0.228 |
| GCCUCAGUAUUGGUGCUCUTT against A930021C24Rik | inactive: -0.324 |
| CGCAGUGGACUCAUCUUGATT against Sestd1 | inactive: 0.735 |
| GGAGGUGGUAUGUUUUAUATT against AI461788 | inactive: -0.249 |
| GGACUUAAUCCCAUGGAGCTT against C730027P07Rik | inactive: 0.336 |
| GGACAAGGAAUACUACGAGTT against Ltbr | inactive: 1.78 |
| GCAAAGGAAUCCUUUUCACTT against 5930406N14Rik | inactive: 0.222 |
| CGUUUGCCUGGUACCUUACTT against 1110028A07Rik | inactive: -1.36 |
| CGUUGGUUAUUAGUUGAUUTT against Luc7l2 | inactive: -0.0763 |
| GGAGCAUUUUGGAUAAGAUTT against Nup88 | inactive: -1.8 |
| GGACAUUUAAGUGACUUGUTT against Dtnbp1 | inactive: 1.5 |
| CGAAAUCAGAACCUGGGAATT against AW742319 | inactive: -1.44 |
| GGAUUUUCGAUUCUCUUACTT against Glg1 | inactive: 0.174 |
| CCGUCCGAUGAAAAACAGGTT against Prm1 | inactive: 0.593 |
| GCGAGAGAUUCUUUCCCUGTT against Traf6 | inactive: -0.675 |
| GGGACUUUUUUUCAAACACTT against 2900026A02Rik | inactive: 0.273 |

| Sequence | z-score |
| --- | --- |
| CGGCAGUCAGCAAAACAAATT against Pnpt1 | inactive: 0.259 |
| GCAGAUUGCAUCGGAAGAATT against BC061237 | inactive: -0.551 |
| GGGAAACCACAGUAGUCUGTT against Gyk | inactive: 0.391 |
| GCUCAAUGCUUUCUUGUCATT against 0610010F05Rik | inactive: -0.444 |
| GGAAAUUCUGGCAUAAAUUTT against Cd86 | inactive: -0.473 |
| GGUAACAAAUAAAGGAUACTT against Dgke | inactive: 0.833 |
| CCUGGUUAGAGCAAGGAUGTT against 2900084M01Rik | inactive: 1.49 |
| GGCCGUGAUGCUAGAGAACTT against 2810405K07Rik | inactive: -0.355 |
| CCACACUUUUCAGUAUAAUTT against AI461788 | inactive: -0.6 |
| GGAACACAACUUCCUGUUCTT against BC037034 | inactive: -0.707 |
| GCAAUUCGAUUGAAGAUCUTT against Aoc3 | inactive: 0.978 |
| CCCUACUCCUCAGAACUUATT against Tbc1d10 | inactive: 2.05 |
| GGUCCCUACAGGGAACAAATT against Trim10 | inactive: -1.52 |
| GCCAUUAAUCUCACAUGUATT against A930001N09Rik | inactive: -0.871 |
| GGGAAGUCAAAGAAGAAUGTT against 2010106E10Rik | inactive: -0.647 |
| GCCGUUUAUCCUAUGAACUTT against Fign | inactive: 0.386 |
| GGAUUCUCAUGAUUGUAAATT against BC016423 | inactive: 0.0859 |
| GGUUCAAGAGGAGACUACUTT against BC005624 | inactive: -2.15 |
| GGCACUCAGUUCUUACCAGTT against BC029214 | inactive: -0.979 |
| GGAUGGCUACAUUGACUUCTT against Guca1a | inactive: -0.673 |
| GGAGGUCAAAGUAAACUGGTT against Tial1 | inactive: -2.28 |
| GCCAGUUUACACCAGAGUCTT against Tecta | inactive: -0.72 |
| GGUGUUUAAGGAUGAACAATT against L3mbtl3 | inactive: -0.264 |
| GGUGUAAAGGAAAGAAGAATT against 0610005I04 | inactive: -2.21 |
| GGCAUUUACCAAGUUCCUGTT against Olfr522 | inactive: 0.214 |
| CGAUCCUCAUCUUUAUAUATT against D430020F16 | inactive: 0.296 |

In another format: results already given.
GCGAGAGAUUCUUUCCCUGTT against Traf6
  z-score: inactive: -0.675
CGGCAGUCAGCAAAACAAATT against Pnpt1
  z-score: inactive: 0.259
CCCUACUCCUCAGAACUUATT against Tbc1d10
  z-score: inactive: 2.05
